Measurements taken from US20110047631A1, “HEAT SHOCK PROTEIN DEFICIENCIES AS MODEL SYSTEMS FOR BRAIN PATHOLOGY AND CANCER” (Medical College of Georgia Research Institute Inc., priority 2009, published 2011).
Results are given in words; binding and its absence hold for the method and conditions named. For some of these results: Binding seen in cells or lysates may run through a third protein. Some entries that bind do so weakly or less than the wild type.

Amino acid sequences for entries named in this document (tags omitted). A change or cut given only in a name is not applied to a line headed by its entry. Chains listed by the source or under a name are the forms on record and can include a tag or linker.
tau (total tau), endogenous mouse protein in brain extracts (P10637, form named): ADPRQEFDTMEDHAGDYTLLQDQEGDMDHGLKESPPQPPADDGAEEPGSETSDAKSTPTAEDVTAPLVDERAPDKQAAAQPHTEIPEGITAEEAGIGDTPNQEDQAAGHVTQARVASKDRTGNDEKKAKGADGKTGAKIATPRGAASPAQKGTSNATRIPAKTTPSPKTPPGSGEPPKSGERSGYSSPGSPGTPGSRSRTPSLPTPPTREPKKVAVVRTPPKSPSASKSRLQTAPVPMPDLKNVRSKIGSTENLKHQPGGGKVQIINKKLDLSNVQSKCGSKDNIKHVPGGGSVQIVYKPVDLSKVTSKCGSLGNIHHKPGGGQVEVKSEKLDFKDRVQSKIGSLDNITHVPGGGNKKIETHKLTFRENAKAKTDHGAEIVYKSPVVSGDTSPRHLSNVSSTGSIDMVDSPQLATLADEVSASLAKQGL
UniProt Q9QUR7: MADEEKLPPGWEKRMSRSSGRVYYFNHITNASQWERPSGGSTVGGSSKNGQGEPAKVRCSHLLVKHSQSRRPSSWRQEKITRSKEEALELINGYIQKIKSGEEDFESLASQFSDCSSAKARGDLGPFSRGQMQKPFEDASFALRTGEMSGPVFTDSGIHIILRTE

Experiments:
[1] = molecular target: tau (total tau), endogenous mouse protein in brain extracts (mouse) (UniProt P10637); assay: immunoprecipitation of mouse brain extracts with antibody to total tau, immunoblot for Pin1
[2] = molecular target: tau (total tau), endogenous mouse protein in brain extracts (mouse) (UniProt P10637); assay: immunoprecipitation of 1 mg mouse brain lysate with antibody to total tau, immunoblot
[3] = molecular target: tau (total tau), endogenous mouse protein in brain extracts (mouse) (UniProt P10637); assay: co-immunoprecipitation with antibody to total tau (DA9), immunoblot for Pin1
[4] = molecular target: tau (total tau), endogenous mouse protein in brain extracts (mouse) (UniProt P10637); assay: co-immunoprecipitation from mouse brain extracts

Measured: binding

peptidyl-prolyl isomerase Pin1, endogenous mouse protein in brain extracts (from UniProt Q9QUR7 1-165) (enzyme)
binds: all assays above
